Test results as given in PMC3963969.
No constants are given. Whether binding was seen depends on the method and setting. Binding calls can cover weak binding; strength is not graded here. Sequences can lack the tags named with a protein.

Tests used:
HA-Crb2 (S. pombe) = target: T1, HA-Crb2 (S. pombe) (UniProt P87074); test: pull-down; purified GST-Rad4 fragments (0.5 μM) incubated with HA-Rad9 or HA-Crb2 bound to anti-HA antibody beads, 4°C, 2 h, 20 mM TrisHCl, 150 mM NaCl, 0.02% NP-40, 1 mM DTT, 10% glycerol, pH 7.5; bound fragments blotted with anti-GST antibodies; both purified
T1 sequence: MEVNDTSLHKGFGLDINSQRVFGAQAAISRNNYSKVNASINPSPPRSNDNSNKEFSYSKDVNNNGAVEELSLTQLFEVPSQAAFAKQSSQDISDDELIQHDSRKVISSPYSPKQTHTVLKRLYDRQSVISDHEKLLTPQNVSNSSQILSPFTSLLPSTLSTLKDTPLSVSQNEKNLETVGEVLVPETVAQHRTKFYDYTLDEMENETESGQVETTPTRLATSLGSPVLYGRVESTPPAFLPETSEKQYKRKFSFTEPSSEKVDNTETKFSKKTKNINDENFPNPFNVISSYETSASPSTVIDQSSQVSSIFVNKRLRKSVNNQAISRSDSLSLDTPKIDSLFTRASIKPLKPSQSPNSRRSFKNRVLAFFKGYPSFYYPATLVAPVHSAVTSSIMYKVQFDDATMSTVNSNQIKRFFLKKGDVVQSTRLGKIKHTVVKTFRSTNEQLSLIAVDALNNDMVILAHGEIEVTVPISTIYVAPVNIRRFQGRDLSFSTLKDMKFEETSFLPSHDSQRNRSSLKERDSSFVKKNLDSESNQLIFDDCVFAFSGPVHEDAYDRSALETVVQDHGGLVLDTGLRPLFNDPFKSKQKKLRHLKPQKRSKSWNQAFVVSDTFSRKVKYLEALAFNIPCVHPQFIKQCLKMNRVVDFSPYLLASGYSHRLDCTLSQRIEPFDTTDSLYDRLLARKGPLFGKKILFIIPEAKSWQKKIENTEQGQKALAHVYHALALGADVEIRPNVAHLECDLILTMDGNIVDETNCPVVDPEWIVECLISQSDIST

[1] = target: T2, HA-Rad9, phosphorylated at Thr412 (S. pombe) (UniProt P26306); test: as above
T2 sequence (chain, phosphothreonine at 412 (detected with the phospho-specific antibody)): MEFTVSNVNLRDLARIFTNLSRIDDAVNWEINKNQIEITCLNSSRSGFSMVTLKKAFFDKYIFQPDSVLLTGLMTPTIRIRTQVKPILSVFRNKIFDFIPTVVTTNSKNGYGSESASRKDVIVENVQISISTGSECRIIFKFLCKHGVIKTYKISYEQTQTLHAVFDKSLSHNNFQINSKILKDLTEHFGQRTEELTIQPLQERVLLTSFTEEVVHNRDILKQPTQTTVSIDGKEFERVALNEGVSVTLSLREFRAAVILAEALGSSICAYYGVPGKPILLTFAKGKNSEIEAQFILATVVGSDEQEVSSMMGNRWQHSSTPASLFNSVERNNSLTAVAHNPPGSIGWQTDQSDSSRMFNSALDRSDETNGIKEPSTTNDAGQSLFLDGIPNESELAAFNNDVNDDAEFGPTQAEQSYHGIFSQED

Substance: GST-tagged Rad4 fragment b (first pair of BRCT repeats) (S. pombe) (domain or fragment)
- binding (HA-Crb2 (S. pombe)): binds

Substance: GST-tagged Rad4 fragment d (contains the second pair of BRCT repeats) (S. pombe) (domain or fragment)
- binding [1]: binds

Substance: GST-tagged Rad4 fragment e (contains the second pair of BRCT repeats) (S. pombe) (domain or fragment)
- binding (HA-Crb2 (S. pombe)): binds weakly
- binding [1]: binds
